In all, about 360,000 compounds went through this assay and about 780 (0.22%) were called active. The shares of active, inactive and inconclusive entries below differ from those in the screen. Cut-off read from the data, not from the text of the source: active = inhibition above about 35% (passing the limit was not always enough); inconclusive = no clear call, values can overlap the other calls.
Each compound was assayed on Botulinum neurotoxin type F light chain protease (Clostridium botulinum) (assay: BoNT/F light chain protease inhibitors, primary screen, biochemical, flow cytometry, MLPCN library (AID 588497; note: plate controls were buffer without enzyme for full effect and enzyme alone for no effect)). Details: Multiplex microsphere protease cleavage assay, at 10 µM, active compounds read high.

For Cc1nc2c(-c3ccccc3)c(C)nn2c(SCC(N)=O)c1Cc1ccccc1, which inhibition is on record?
The inhibition was inconclusive: 7.9%.

Cn1c(-c2ccc(Cl)cc2)ccc(C#N)c1=O was tested. Which inhibition did it give?
The inhibition was inactive: -1.7%.

Which inhibition does the source give for CCCCCNC(=O)C1c2ccccc2Oc2ccccc21 here?
The inhibition was inconclusive: -13.5%.

How did the inhibition turn out when Cc1cc(S(=O)(=O)N2CCCOC2CNC(=O)C(=O)NCCCN2CCOCC2)ccc1F (configuration not stated) was run?
The inhibition was inactive: 6.6%.

Which inhibition does the source give for O=C(Cc1cccs1)Nc1ccc(S(=O)(=O)Nc2ncccn2)cc1 here?
Its inhibition is inactive: -7.9%.

Which inhibition does the source give for Cc1cc(C)n(C2CCCCC2OC(=O)CCc2ccccc2)n1 (configuration not stated) here?
Its inhibition is inconclusive: -75.8%.

Which inhibition does the source give for CNC(=O)C(=O)NCCN1CCN(S(=O)(=O)c2ccc3ccccc3c2)CC1 here?
The inhibition was inconclusive: 25.3%.

For N#CCOc1ccccc1/C=N/n1nnnc1N, which inhibition is on record?
The inhibition was inconclusive: 17.9%.

With CCNc1nc(NC(C)C)nc(N(C#N)C(C)C(=O)N(CC)CC)n1 (configuration not stated) as the compound, how does the inhibition read?
Its inhibition is inconclusive: -110%.

How did the inhibition turn out when NC(=O)c1ccsc1NC(=O)C1CCN(S(=O)(=O)c2cccs2)CC1 was run?
Its inhibition is inconclusive: 13.3%.

With Cc1ccc(-n2nc(C)c3c(C)onc3c2=O)cc1 as the compound, how does the inhibition read?
Its inhibition is inconclusive: 26.9%.

For CC1CN(Cc2ccccc2)C(=S)NC1=O (configuration not stated), which inhibition is on record?
The inhibition was inactive: 0.1%.

Which inhibition does the source give for CSCCC(=O)N1CCCC(N(C)CCc2ccccc2)C1 (configuration not stated) here?
Its inhibition is inconclusive: -15.5%.

For O=C(Nc1ccc(Cl)cn1)C1CCCN1S(=O)(=O)c1ccc(Cl)cc1 (configuration not stated), which inhibition is on record?
The inhibition was inactive: -6.8%.

How did the inhibition turn out when O=C(CSc1nc2ccccc2[nH]1)NCc1ccccc1 was run?
Its inhibition is inconclusive: -11%.

With CCCCn1c(=O)c(C(=O)NCc2ccccc2)c(O)c2ccccc21 as the compound, how does the inhibition read?
Its inhibition is inconclusive: -10.9%.

With COc1ccc(C2=Nn3c(nnc3-c3cc(C)[nH]n3)SC2)cc1 as the compound, how does the inhibition read?
The inhibition was inconclusive: 47.1%.

Which inhibition does the source give for CCc1cc(C)cc(OCCOc2ccccc2/C=N/NC(C)=O)c1 here?
The inhibition was inconclusive: -10.1%.

COCCNC(=O)C(c1ccccc1C)N(CCOC)C(=O)Cn1nnc2ccccc21 (configuration not stated) was tested. Which inhibition did it give?
The inhibition was inconclusive: -4.2%.

How did the inhibition turn out when O=C(OCC(=O)c1c[nH]c2ccccc12)c1ccc(Br)o1 was run?
Its inhibition is inactive: -1.5%.

Which inhibition does the source give for COc1ccc(CNC(=O)C(NS(=O)(=O)c2ccc3c(c2)CCCN3C(C)=O)C(C)C)cc1 (configuration not stated) here?
The inhibition was inconclusive: 10.4%.

How did the inhibition turn out when CC(C)Sc1nnc(OC(=O)N(C)C)n1-c1ccccc1 was run?
The inhibition was inconclusive: 10.7%.

For CCC(NC(=O)C1CCCC1)c1ccccc1 (configuration not stated), which inhibition is on record?
Its inhibition is inconclusive: 13.5%.

With Cc1ccc(NC(=O)c2ccc(OCc3c(C)noc3C)cc2)cc1C as the compound, how does the inhibition read?
Its inhibition is inconclusive: -3.9%.

How did the inhibition turn out when CCOc1ccc2ccc(OCC)c(/C=N/n3cnnc3)c2c1 was run?
The inhibition was inactive: 13.9%.

O=C(O)/C=C/C(=O)Nc1ccc(OCc2ccccc2)cc1 was tested. Which inhibition did it give?
The inhibition was inconclusive: 39%.

For CS(=O)(=O)N(CC(=O)NCCSCc1ccccc1Cl)c1ccccc1F, which inhibition is on record?
Its inhibition is inconclusive: -27%.

How did the inhibition turn out when COc1ccccc1CNC(=O)C1CCCN(S(=O)(=O)c2c(C)[nH]c(=O)[nH]c2=O)C1 (configuration not stated) was run?
Its inhibition is inconclusive: -18.4%.

With CC(=O)Nc1cccc(NC(=O)C(=O)NCC(c2ccco2)N2CCc3ccccc32)c1 (configuration not stated) as the compound, how does the inhibition read?
The inhibition was inconclusive: -16.4%.

With CCOC(=O)c1c(/N=C/c2c(O)n(-c3ccc(F)cc3)c(=S)[nH]c2=O)sc2c1CCCC2 as the compound, how does the inhibition read?
The inhibition was active: 43.2%.

For COc1ccc(CNc2nc3ccccc3n2C(C)C)c(O)c1, which inhibition is on record?
The inhibition was inconclusive: -19.8%.

For CC(=O)Nc1ccccc1-c1cccc2nccn12, which inhibition is on record?
Its inhibition is inactive: 1.2%.

COc1cc(OC)cc(C(=O)Nn2cnnc2)c1 was tested. Which inhibition did it give?
The inhibition was inconclusive: 4%.

How did the inhibition turn out when CC(=O)OCC(OC(C)=O)C(OC(C)=O)C(OC(C)=O)C(=O)Nc1cccc(C)c1 (configuration not stated) was run?
Its inhibition is inconclusive: -20.4%.

O=C(NC1CCCCC1)C(c1ccncc1)N(Cc1ccc(F)cc1)C(=O)c1ccccn1 (configuration not stated) was tested. Which inhibition did it give?
The inhibition was inconclusive: 9.8%.

Which inhibition does the source give for Cc1cc(Cl)ccc1NNC(=O)CCc1ccccc1 here?
Its inhibition is inconclusive: -13.8%.

Which inhibition does the source give for O=C(COc1ccc(Cl)cc1)Nc1ccccc1Cl here?
Its inhibition is inconclusive: -37.3%.

CCc1ccccc1NNC(=O)c1snnc1C was tested. Which inhibition did it give?
The inhibition was inconclusive: -55.5%.

For O=S(=O)(NCC(c1ccc2c(c1)OCO2)N1CCOCC1)c1ccc(Cl)cc1 (configuration not stated), which inhibition is on record?
Its inhibition is inconclusive: 6%.

How did the inhibition turn out when O=[N+]([O-])c1ccc(OCCO)nc1 was run?
The inhibition was inconclusive: -8.9%.

How did the inhibition turn out when O=S(=O)(c1ccccc1)N1CCN(Cc2cccc(Cl)c2)CC1 was run?
The inhibition was inconclusive: -4.2%.

Which inhibition does the source give for COc1cccc(N=Cc2c(O)c3ccccc3oc2=O)c1 here?
Its inhibition is inconclusive: -30%.

How did the inhibition turn out when O=C(c1cc(-c2ccc(Br)cc2)nc2ccccc12)N1CCN(c2ccccc2O)CC1 was run?
The inhibition was inconclusive: 2.7%.

Which inhibition does the source give for CC(=O)N1CCOc2ccc(S(=O)(=O)N(C)c3cccc(C)c3)cc21 here?
Its inhibition is inactive: -4.4%.

Which inhibition does the source give for COc1ccc(C)cc1NC(=O)COC(=O)CCC(=O)c1cccs1 here?
Its inhibition is inactive: -2.4%.

With O=C(CN1CCN(Cc2ccccc2)CC1)Nc1ccc(F)c(F)c1 as the compound, how does the inhibition read?
Its inhibition is inconclusive: 42.6%.

How did the inhibition turn out when O=c1cc(-c2ccc(O)c(-c3c(O)cc(O)c4c(=O)cc(-c5ccc(O)cc5)oc34)c2)oc2cc(O)cc(O)c12 was run?
The inhibition was inactive: 1.8%.

Which inhibition does the source give for CCOC(=O)c1cnc2ccc(OCC)cc2c1NCCCN1CCOCC1 here?
The inhibition was inconclusive: 7.9%.

For Cc1ccc(/C=N/n2c(-c3ccc(Cl)cc3)n[nH]c2=S)o1, which inhibition is on record?
Its inhibition is inconclusive: 31.3%.

With Nc1cc(=O)[nH]c(SCC(=O)Nc2cccc(Cl)c2)n1 as the compound, how does the inhibition read?
The inhibition was inactive: -3.4%.

O=C(N/N=C/c1cc(Br)c(O)c([N+](=O)[O-])c1)C(O)(c1ccccc1)c1ccccc1 was tested. Which inhibition did it give?
Its inhibition is inconclusive: 22.5%.

How did the inhibition turn out when CC(C)Cc1ccc(-c2cc(=O)[nH][nH]2)cc1 was run?
The inhibition was inactive: 2%.

With Cc1ccc(CSc2nnc(CCNC(=O)OC(C)(C)C)o2)cc1 as the compound, how does the inhibition read?
The inhibition was inconclusive: 64.6%.

How did the inhibition turn out when COc1ccc(C(=O)Nc2ccc3ccccc3n2)c(OC)c1OC was run?
Its inhibition is inconclusive: 16.7%.

For Cc1cc(C)cc(NCc2cc3c(cc2[N+](=O)[O-])OCO3)c1, which inhibition is on record?
The inhibition was inactive: -9.3%.

With COc1cc(NC(=O)COc2cc(O)c3c(c2)OC(C)(C)CC3=O)cc(OC)c1OC as the compound, how does the inhibition read?
Its inhibition is inactive: 1.7%.

For Cc1cccc(OCCn2ccnc2)c1C, which inhibition is on record?
Its inhibition is inconclusive: 11.5%.

With COC(=O)c1ccc(/C=C/c2ccc3cccc(OC)c3n2)cc1 as the compound, how does the inhibition read?
The inhibition was inactive: 8.5%.

How did the inhibition turn out when CC(=NNC(=S)N1CCCCCC1)c1ccccn1 was run?
The inhibition was active: 55%.

For CCCOc1ccc(-c2cc(C(=O)NCC3CCCO3)c3ccccc3n2)cc1 (configuration not stated), which inhibition is on record?
Its inhibition is inactive: 0.1%.

CN(CC(=O)Nc1cccc(F)c1)C(=O)c1cccnc1Sc1ccc(Cl)cc1 was tested. Which inhibition did it give?
The inhibition was inactive: -9.7%.

How did the inhibition turn out when CCN1CCN(c2c(C=O)c(Cl)nc3ccc(OC)cc23)CC1 was run?
The inhibition was inconclusive: 31.5%.

Which inhibition does the source give for CCC(C)c1ccccc1N1CC(C(=O)NCCCn2nc(C)cc2C)CC1=O (configuration not stated) here?
Its inhibition is inactive: -13.1%.

CN1CCc2c1nc1ccccc1c2N (tested in a mixture with another compound) was tested. Which inhibition did it give?
The inhibition was inconclusive: 27.2%.

Which inhibition does the source give for CCCCn1c(SCC(=O)Nc2cc(C(F)(F)F)cc(C(F)(F)F)c2)nnc1C(CC)N(C)C (configuration not stated) here?
Its inhibition is inactive: 1%.

With Nc1ncnc(Nc2cccc(C(F)(F)F)c2)n1 as the compound, how does the inhibition read?
Its inhibition is inactive: -3.3%.

For COc1ccc(/C=N/NC(=O)c2cccc(Br)c2)cc1CN1CCOCC1, which inhibition is on record?
Its inhibition is inconclusive: 39.9%.

For O=C(Nc1cccnc1)c1cccc([N+](=O)[O-])c1, which inhibition is on record?
The inhibition was inconclusive: -2.5%.

For COC(=O)c1ccc(-c2n[nH]c(=O)c3ccccc23)cc1, which inhibition is on record?
Its inhibition is inactive: 2.5%.

Which inhibition does the source give for CC(OC(=O)CCCN=C1NS(=O)(=O)c2ccccc21)C(=O)Nc1ccccc1F (configuration not stated) here?
The inhibition was inconclusive: 9%.

For Cc1ccccc1C(=O)Nc1ccc(N(C)C)c2ccccc12, which inhibition is on record?
The inhibition was inconclusive: 38.9%.

How did the inhibition turn out when Cc1ccc(CNc2nc(N)c([N+](=O)[O-])c(NCCO)n2)cc1 was run?
Its inhibition is inconclusive: 18.1%.

Which inhibition does the source give for O=C(NCc1ccccn1)Nc1ccc(Cl)cc1 here?
Its inhibition is inconclusive: -22%.

Which inhibition does the source give for Cc1nn(CC(=O)Nc2ccc(C(=O)N(C)C)cc2)c(=O)c2ccccc12 here?
Its inhibition is inactive: 4.6%.

With O=c1c2ccccc2n(Cc2cccc(F)c2)c(=O)n1C1CCCC1 as the compound, how does the inhibition read?
The inhibition was inconclusive: -48.1%.

Which inhibition does the source give for CCOC(=O)Cn1cc(C#N)c(=O)[nH]c1=O here?
Its inhibition is inconclusive: 6%.

For O=C(Oc1ccc(-c2csnn2)cc1)C1CC1, which inhibition is on record?
Its inhibition is inconclusive: -1.3%.

For O=C(Nc1ccccc1C(=O)Nc1ccccc1)c1ccccc1Br, which inhibition is on record?
The inhibition was inconclusive: 38.7%.

Cc1c(C(=O)NCCSCc2cccc(C(F)(F)F)c2)cnn1-c1ccc(F)cc1 was tested. Which inhibition did it give?
The inhibition was inconclusive: -46.1%.

With Cc1cc(C)cc(N(CC(=O)NC(C)(C)C)C(=O)CCC(=O)Nc2ccccn2)c1 as the compound, how does the inhibition read?
The inhibition was inconclusive: -13.5%.

COc1ccc(C(=O)[C@H]2[C@H]3C(=O)N(c4ccc(OC(C)=O)cc4)C(=O)[C@H]3C3C=CC=NN32)cc1 (some centres not stated) was tested. Which inhibition did it give?
Its inhibition is inconclusive: 54.1%.

Which inhibition does the source give for Cc1ccc(Nc2c(-c3ccc(N4CCOCC4)cc3)nc3ncccn23)cc1 here?
Its inhibition is inactive: 4.5%.

Which inhibition does the source give for O=c1ccc(Cl)n[nH]1 here?
The inhibition was inconclusive: -4.8%.

How did the inhibition turn out when Cc1ccc(NC(=O)CSc2nncn2N)cc1C was run?
Its inhibition is inconclusive: -6.1%.

Which inhibition does the source give for Cc1ccccc1NC(=O)NCCN1CC1 here?
Its inhibition is inconclusive: -58.2%.

For COc1ccccc1-c1coc2c(CN3CCOCC3)c(O)ccc2c1=O, which inhibition is on record?
The inhibition was inconclusive: -29%.

With Cc1cccc[n+]1CC(=O)Nc1ccc([N+](=O)[O-])cc1 as the compound, how does the inhibition read?
The inhibition was inconclusive: -24.3%.

CS(=O)(=O)Nc1ccc(C2=NN(C(=O)C3CCCCC3)C(c3cccs3)C2)cc1 (configuration not stated) was tested. Which inhibition did it give?
The inhibition was inactive: 6.5%.

With CCc1cccc2c(C(=O)COC(=O)[C@@H]3CC(O)CN3S(=O)(=O)c3ccccc3[N+](=O)[O-])c[nH]c12 (some centres not stated) as the compound, how does the inhibition read?
Its inhibition is inactive: -10%.

How did the inhibition turn out when CN(C)CC/C=C1\c2ccc(F)cc2Sc2cc(F)c(Cl)cc21 was run?
The inhibition was inconclusive: -83%.

Which inhibition does the source give for CCC(CC)C(=O)N(C)c1c(C)nc2c(OCc3cccc(OC)c3)cccn12 here?
The inhibition was inactive: 4%.

How did the inhibition turn out when CCN1CCN(Cc2cc3c(cc2[N+](=O)[O-])OCO3)CC1 was run?
The inhibition was inconclusive: 3.6%.
